Results of single-concentration screens

Protein sequences, listed by entry. Tags and fused reporters are not part of them. Residues count along the entry.
UniProt Q4DA54, 1-478: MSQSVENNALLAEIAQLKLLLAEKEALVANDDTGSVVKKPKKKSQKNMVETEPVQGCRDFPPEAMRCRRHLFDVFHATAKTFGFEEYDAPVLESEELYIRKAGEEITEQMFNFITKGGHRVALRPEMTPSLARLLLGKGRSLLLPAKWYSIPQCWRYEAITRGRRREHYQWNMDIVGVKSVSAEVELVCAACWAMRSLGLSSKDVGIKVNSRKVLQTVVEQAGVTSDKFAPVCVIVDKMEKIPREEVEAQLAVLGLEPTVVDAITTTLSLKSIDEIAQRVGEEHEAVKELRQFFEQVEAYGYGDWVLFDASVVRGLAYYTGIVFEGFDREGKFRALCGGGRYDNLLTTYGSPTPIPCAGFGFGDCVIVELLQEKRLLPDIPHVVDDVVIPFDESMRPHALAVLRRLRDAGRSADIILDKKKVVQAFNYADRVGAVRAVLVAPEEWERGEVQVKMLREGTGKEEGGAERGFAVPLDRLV
UniProt P9WNZ1, whole entry: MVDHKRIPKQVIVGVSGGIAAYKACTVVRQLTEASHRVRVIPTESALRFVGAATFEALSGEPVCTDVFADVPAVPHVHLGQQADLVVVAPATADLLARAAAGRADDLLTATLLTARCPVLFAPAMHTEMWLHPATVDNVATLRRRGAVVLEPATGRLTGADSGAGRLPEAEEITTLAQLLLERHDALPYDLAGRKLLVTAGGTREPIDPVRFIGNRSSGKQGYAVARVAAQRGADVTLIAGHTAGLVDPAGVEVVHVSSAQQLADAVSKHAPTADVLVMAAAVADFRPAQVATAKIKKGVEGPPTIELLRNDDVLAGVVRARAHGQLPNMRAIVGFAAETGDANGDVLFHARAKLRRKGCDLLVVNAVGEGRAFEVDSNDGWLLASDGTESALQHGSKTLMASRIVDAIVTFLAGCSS
UniProt P9WPC5, whole entry: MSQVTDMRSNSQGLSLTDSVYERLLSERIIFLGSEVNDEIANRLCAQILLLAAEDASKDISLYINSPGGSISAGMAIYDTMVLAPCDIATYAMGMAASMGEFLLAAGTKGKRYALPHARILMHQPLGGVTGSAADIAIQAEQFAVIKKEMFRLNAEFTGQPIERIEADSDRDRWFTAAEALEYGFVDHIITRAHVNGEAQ
UniProt P9WPC3, whole entry partner: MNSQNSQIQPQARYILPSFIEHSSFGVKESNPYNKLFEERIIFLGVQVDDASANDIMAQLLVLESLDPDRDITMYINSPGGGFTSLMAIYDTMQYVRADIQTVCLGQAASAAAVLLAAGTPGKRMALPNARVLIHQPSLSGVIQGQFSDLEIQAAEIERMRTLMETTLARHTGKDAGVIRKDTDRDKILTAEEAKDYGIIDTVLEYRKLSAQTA
UniProt Q8IDJ8, 1-583: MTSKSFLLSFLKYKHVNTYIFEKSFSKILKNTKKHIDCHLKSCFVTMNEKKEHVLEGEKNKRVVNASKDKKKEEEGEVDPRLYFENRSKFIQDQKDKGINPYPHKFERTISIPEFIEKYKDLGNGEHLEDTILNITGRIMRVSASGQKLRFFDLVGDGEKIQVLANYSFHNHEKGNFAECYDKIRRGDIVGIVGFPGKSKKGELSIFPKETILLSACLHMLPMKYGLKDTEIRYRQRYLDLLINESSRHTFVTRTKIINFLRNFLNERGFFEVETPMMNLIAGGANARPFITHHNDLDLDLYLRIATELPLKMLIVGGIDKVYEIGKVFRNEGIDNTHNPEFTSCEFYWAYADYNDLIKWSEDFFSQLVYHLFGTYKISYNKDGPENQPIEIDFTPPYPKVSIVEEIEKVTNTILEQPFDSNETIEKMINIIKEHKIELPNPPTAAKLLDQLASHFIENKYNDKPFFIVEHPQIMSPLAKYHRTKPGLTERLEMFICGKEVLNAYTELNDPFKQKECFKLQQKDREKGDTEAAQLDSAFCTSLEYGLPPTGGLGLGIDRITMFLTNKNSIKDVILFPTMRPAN

The values are deposited in ChEMBL (CHEMBL3988442, “University of Dundee, Small-Polar-MMV Screening Library” (2021)).

A: 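Cell assay of Leishmania donovani living inside macrophages; the read-out is not stated. Tested at 30 µM. Higher reads as stronger inhibition (inferred: compounds with an IC50 in retests scored well above the rest). Of about 69,000 compounds tested this way, about 1,000 (1.5%) reached 50% or more in at least one test.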
B: 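Histidine-tRNA ligase, Trypanosoma cruzi CL Brener (UniProt Q4DA54). Enzyme assay of histidyl-tRNA synthetase; the read-out is not stated. Tested at 30 µM. Higher reads as stronger inhibition (inferred: compounds with an IC50 in retests scored well above the rest). Of about 69,000 compounds tested this way, about 31 (0.045%) reached 50% or more in at least one test.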
C: 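Enzyme assay of CoaBC with a phosphate dye (Biomol Green) read at 650 nm. Target: Coenzyme A biosynthesis protein CoaBC, Mycobacterium tuberculosis (UniProt P9WNZ1). Compounds at 30 µM. Higher reads as stronger inhibition, judged from the few compounds that gave an IC50. Most strong results did not repeat in a second test. About 67,000 compounds were tested under these conditions; 0.06% (about 40) showed 50% or more at least once.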
D: 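ClpP1P2, Mycobacterium tuberculosis (UniProt P9WPC5 and UniProt P9WPC3). Protease assay of ClpP1P2, read by the AMC dye that it sets free. Concentration: 50 µM. Direction is inferred from only a few compounds that gave an IC50; most scored high, so higher reads as stronger inhibition. Most other retested compounds had strongly negative values. Of about 69,000 compounds tested this way, about 10 (0.015%) reached 50% or more in at least one test.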
E: 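Enzyme assay of the cytosolic lysyl-tRNA synthetase in 384-well plates, read by luminescence. Target: Lysine-tRNA ligase, Plasmodium falciparum 3D7 (UniProt Q8IDJ8). Tested at 30 µM. Direction is inferred from only a few compounds that gave an IC50; most scored high, so higher reads as stronger inhibition. Size under these conditions: about 69,000 compounds, about 49 of them at 50% or above in at least one test.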

The filed quantity is “Percent Effect” (%). How 0% and 100% were set is not recorded. Most values in the screen are low, and negative values occur. The compounds are a random part of those screened. Two or more numbers in one place are separate tests of the same structure; such repeats can differ widely. A dash means the value is not listed here; it may have been measured.

O=C(CN1CCCC(O)C1)NC(=O)NCc1cccs1 (stereo not drawn) gave A: -7.632%; B: 1.087%; C: 10.39%; D: 7.97%; E: 0.2438%. O=C1O[C@@H]2CN(Cc3cccc(F)c3)C[C@@H]2N1CCCN1CCOCC1 read B: 1.245%; C: 4.911%; D: -6.548%; E: -5.895%. With COc1ccc(NC(=O)NC(C)Cc2ccco2)cn1 (stereo not drawn) the screen gave A: 18.08%; B: 11.76%; C: 1.279%; D: -25.33%; E: 2.575%. Result for [H][C@@]12CCN(S(C)(=O)=O)[C@]1([H])CC[C@@H](C(=O)NCc1cccnc1)O2 was A: 12.43%. Result for COc1cc(OC)c2nc(NCCN3CCNC3=O)cc(C)c2c1 was A: 2.676%; B: 7.2%; C: -8.009%; D: -253%; E: 7.552%.

With Cn1cc(C2COC3(CCN(C(=O)c4ccn(C)n4)CC3)C2)cn1 (stereo not drawn) the screen gave A: 16.69%; B: 16.67%; C: 4%; D: -0.8386%; E: 1.59%. With CC1CN(CCOc2ccccc2C#N)CCN1Cc1nccn1C (stereo not drawn) the screen gave A: -15.92%; B: 3.468%; C: 4.302%; D: -29.17%; E: 1.376%. CCN(CC)CCn1cc(NC(=O)c2ccccc2OC)cn1 gave A: 17.54%; B: 0.9804%; C: -1.595%; D: -4.162%; E: 1.504%. COc1c(CNCc2ccc(CS(C)(=O)=O)cc2)c(C)nn1C gave A: 20.64%; B: 8.262%; C: -10.46%; D: -12.85%; E: -1.326%. With O=C(O)c1ccc2c(c1)C1(CCCCC1)CN2C(=O)c1ccnnc1 the screen gave A: 16.27%; B: 3.922%; C: 3.909%; D: -4.576%; E: 4.934%.

Result for COc1cc(COCC2CCN(Cc3cccnc3)CC2)cc(OC)c1 was B: 0.5291%; C: -14.51%; D: 4.468%; E: 2.657%. Result for COCCN1CCN(CC(C)(O)c2cccc(C(F)(F)F)c2)CC1 (stereo not drawn) was A: 28.13%; B: 5.714%; C: 2.867%; D: 3.314%; E: -0.3596%. CN(Cc1cccnc1)[C@@H]1CN(Cc2cnn(C)c2)[C@@H]2CCCO[C@H]12 read B: 7.619%; C: 0.1233%; D: -20.06%; E: -1.344%. For [H][C@]12CCN(Cc3cccc(C)n3)C[C@@]1([H])OCCN(c1ccc(C)nn1)C2 the result was A: 15.08%. With Cc1ccc(N2CCCC3(COCCN(c4ccccn4)C3)C2)nn1.O=C(O)C(F)(F)F (stereo not drawn) the screen gave A: 43.49%.

CC[C@@H](C)[C@@H](N)C(=O)Nc1cccc(-c2cnc(N(C)CCO)nc2)c1 gave A: 28.43% & -9.322%; B: 0%; C: 1.566%; D: -5.459%; E: 1.843%. COc1ccc(C2CCCN2c2ccnc(C)c2Cl)c(OC)c1 (stereo not drawn) read A: 54.95%; B: 17.72%; C: 2.644%; D: -4.573%; E: -0.4751%. Cc1nn(C)c(N(C)C)c1CNC(C)Cc1c(F)cccc1F (stereo not drawn) gave A: 9.972%; B: 1.141%; C: 2.899%; D: 2.231%; E: 7.074%. Result for CC(C)(C)S(=O)(=O)c1ccc(N2CCC(n3cncn3)CC2)cn1 was A: 26.41%; B: 0.431%; C: 2.155%; D: -7.85%; E: -2.657%. For Cc1nc2ccccc2n1CCNCc1cccc(C#N)c1 the result was A: 24.47%; B: 10.1%; C: 6.234%; D: 4.676%; E: 1.47%.

Result for CC1CCCCN1c1nc2c(c(=O)[nH]1)CCN(Cc1ccc(O)cc1)C2 (stereo not drawn) was A: 8.431% & 18.87%; B: 6.593%; C: 1.699%; D: -11.81%; E: 2.076%. OC(COCc1ccccc1)CSc1nnc(C2CC2)n1C1CC1 (stereo not drawn) read A: -15.6%; B: 5.195%; D: -6.306%; E: -2.808%. For CN(Cc1ncnn1C)C(=O)CCCn1ccc2cc(Cl)ccc21 the result was A: -3.169%; B: 7.071%; C: 7.455%; D: -7.246%; E: -0.4232%. For CN(C)C(=O)NC1COC2(CCN(Cc3ccc(Cl)c(F)c3)CC2)C1.O=C(O)C(F)(F)F (stereo not drawn) the result was A: 39.39%. With O=C1[C@H]2CN(Cc3ccoc3)C[C@H]2CN1CCN1CCCC1 the screen gave B: 0%; C: 2.703%; D: -0.5699%; E: 1.426%.

For CC(=O)c1cc(C(=O)N2CCN(C)Cc3ccccc32)n(C)c1 the result was A: 17.58%; B: 5.319%; C: 7.582%; D: -1.134%; E: 3.696%. Result for CCn1nc(C)c2nnn(CC(=O)Nc3cccc(C)c3)c(=O)c21 was A: 4.982%; B: 2.609%; C: 5.543%; D: 0.5832%; E: 1.327%. O=c1cc(Cn2ccnc2)nc2n1CCCN(Cc1ccncc1)C2 gave A: -32.69%; B: 6.098%; C: 7.519%; D: -14.03%; E: 0.3511%.

The first 3 entries again:

SMILES,A,B,C,D,E
O=C(CN1CCCC(O)C1)NC(=O)NCc1cccs1 (stereo not drawn),-7.632,1.087,10.39,7.97,0.2438
O=C1O[C@@H]2CN(Cc3cccc(F)c3)C[C@@H]2N1CCCN1CCOCC1,-,1.245,4.911,-6.548,-5.895
COc1ccc(NC(=O)NC(C)Cc2ccco2)cn1 (stereo not drawn),18.08,11.76,1.279,-25.33,2.575